Binding data for two molecules are collected here from PMC4831018.

Chains of the proteins cited; added tags and fusions are not shown. Lines headed by an entry give the natural chain unless they say otherwise; changes in a name come on top.
UniProt B9PY91: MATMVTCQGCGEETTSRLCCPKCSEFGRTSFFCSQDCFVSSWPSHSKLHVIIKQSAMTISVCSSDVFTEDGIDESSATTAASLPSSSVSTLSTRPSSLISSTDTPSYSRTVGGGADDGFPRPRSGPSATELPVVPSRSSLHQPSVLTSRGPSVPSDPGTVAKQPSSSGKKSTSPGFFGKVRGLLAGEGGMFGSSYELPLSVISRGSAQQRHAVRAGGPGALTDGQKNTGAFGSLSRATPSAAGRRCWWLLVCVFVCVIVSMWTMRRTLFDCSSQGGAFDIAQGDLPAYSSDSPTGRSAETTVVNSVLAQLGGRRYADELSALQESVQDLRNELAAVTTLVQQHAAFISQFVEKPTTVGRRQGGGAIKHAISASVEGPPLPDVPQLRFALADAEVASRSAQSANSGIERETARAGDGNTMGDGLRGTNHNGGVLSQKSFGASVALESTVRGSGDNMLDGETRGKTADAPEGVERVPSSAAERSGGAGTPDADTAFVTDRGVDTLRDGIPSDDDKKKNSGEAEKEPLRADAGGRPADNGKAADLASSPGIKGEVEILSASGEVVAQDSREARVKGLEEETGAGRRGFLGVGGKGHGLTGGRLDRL
UniProt A0A125YRI3: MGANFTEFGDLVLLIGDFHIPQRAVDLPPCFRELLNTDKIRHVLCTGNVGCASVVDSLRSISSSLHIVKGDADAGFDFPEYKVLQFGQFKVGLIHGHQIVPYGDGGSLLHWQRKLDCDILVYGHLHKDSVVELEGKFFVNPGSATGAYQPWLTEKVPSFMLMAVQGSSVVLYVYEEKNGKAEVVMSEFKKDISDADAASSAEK

Experiment [1] deals with TgHP12-cMyc (Toxoplasma gondii) (UniProt B9PY91). The experiment can be described thus: affinity purification with mass spectrometry; immunoprecipitate of TgHP12-cMyc (knock-in in iKoTgVps35 parasites) analysed by mass spectrometry.
The target of experiment [2] is T. gondii core retromer complex TgVps35–TgVps26–TgVps29 (Toxoplasma gondii). As to the kind of experiment: affinity purification with mass spectrometry; eluates of the anti-HA (TgVps35-HA, TgVps26-HA) and anti-cMyc (TgVps29-cMyc) immunoprecipitations analysed by nanoLC-MS/MS; hits common to at least two co-immunoprecipitations, absent in the control, at least two unique peptides.

Results are given in words; binding and its absence hold for the method and conditions named. Binding seen in cells or lysates may run through a third protein. These calls come from enrichment with a bait or labelling near it, and not all partners need be listed.

Regarding TgVps29 (from UniProt A0A125YRI3), the binding result in experiment [1] was “binds”.

B1: Rab11B (protein, UniProt Q7Z158 1-226)
chain: MAGGSEDYDHLYKVILVGDATVGKTHLLSRYIRGTLPKSPKATIGVEFATRTVPLAVGGTVKAQIWDTAGQERYRSITSAHYRRAVGALLVYDVTRKSTFLNASKWLEELRQNSEPDIVIMMVGNKLDLVEKDPTARDVPYELAAKFAQANGLYFSEASAVTAFNVKHIFEHLLQEIYNHRTQGEEFSGRANGADAYRDAQALGGVRLAANANMYGRNPQNLSCCG
For B1, in experiment [2], the binding result is “binds”.
